PubChem BioAssay AID1259331, Drosophila RNAi Screening Center, 2017
This is an unselected part of about 3,100 reagents. Over the whole deposit, 126 (4.1%) got an active call. 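Calls are per reagent; zinc was so toxic that few knock-downs lowered ATP further, so most hits raise ATP.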 The raw values are shown without normalisation. The record does not give: the amount of reagent.

Aim: 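Knock-downs that alter ATP level after a high zinc chloride dose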 (primary screen)
Cells: Drosophila S2R+ cells
Knock-down reagent: long dsRNA against Drosophila genes
Duration: 5 days (4 days knock-down, then 1 day zinc)
Challenge: zinc chloride at 15 mM final level for 1 day
Measured: 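Luminescent ATP assay standing in for viability; Z score is the mean over three replicate plates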
Reading the numbers: mean Z score: higher = more ATP than other wells, better survival under zinc; ATP luminescence: higher = more ATP, more viable cells
Rule for the call: 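Hit when the absolute Z score is greater than 1.5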
Calls: active = hit, ATP up or down; inactive = not a hit

After knock-down of mthl13 (methuselah-like 13) [DRSC05238] the results were mean Z score 0.596; ATP luminescence, replicate 1 = 50454; ATP luminescence, replicate 2 = 51989; inactive.
TM9SF3 (Transmembrane 9 superfamily protein member 3) [DRSC09747] scored mean Z score -0.0814; ATP luminescence, replicate 1 = 76685; ATP luminescence, replicate 2 = 57322; inactive.
Depletion of Elovl7 (ELOVL fatty acid elongase 7) [DRSC15452] came out at: mean Z score -0.945; ATP luminescence, replicate 1 = 33662; ATP luminescence, replicate 2 = 43502; inactive.
Elovl7 (ELOVL fatty acid elongase 7) [DRSC21570] scored mean Z score 2.24; ATP luminescence, replicate 1 = 72654; ATP luminescence, replicate 2 = 76462; active.
Knock-down of Elovl7 (ELOVL fatty acid elongase 7) [DRSC25259] resulted in: mean Z score -0.255; ATP luminescence, replicate 1 = 54682; ATP luminescence, replicate 2 = 60289; inactive.
Against CG33253 [DRSC19547] the deposit lists mean Z score -0.0326; ATP luminescence, replicate 1 = 42319; ATP luminescence, replicate 2 = 42062; inactive.
CG33253 [DRSC39701] gave mean Z score 0.505; ATP luminescence, replicate 1 = 65845; ATP luminescence, replicate 2 = 68332; inactive.
Against Nup44A (Nucleoporin at 44A) [DRSC07248] the deposit lists mean Z score -0.41; ATP luminescence, replicate 1 = 29067; ATP luminescence, replicate 2 = 30130; inactive.
Nup44A (Nucleoporin at 44A) [DRSC28141] gave mean Z score 0.149; ATP luminescence, replicate 1 = 67446; ATP luminescence, replicate 2 = 60701; inactive.
Hmgcr (HMG Coenzyme A reductase) [DRSC16704] showed mean Z score -0.0327; ATP luminescence, replicate 1 = 38548; ATP luminescence, replicate 2 = 58335; inactive.

3 consecutive records from above:
Elovl7 (ELOVL fatty acid elongase 7) [DRSC15452] | mean Z score = -0.945; ATP luminescence, replicate 1 = 33662; ATP luminescence, replicate 2 = 43502; outcome = inactive
Elovl7 (ELOVL fatty acid elongase 7) [DRSC21570] | mean Z score = 2.24; ATP luminescence, replicate 1 = 72654; ATP luminescence, replicate 2 = 76462; outcome = active
Elovl7 (ELOVL fatty acid elongase 7) [DRSC25259] | mean Z score = -0.255; ATP luminescence, replicate 1 = 54682; ATP luminescence, replicate 2 = 60289; outcome = inactive

The list goes on:
Or69a (Odorant receptor 69a) [DRSC11243] scored mean Z score -0.962; ATP luminescence, replicate 1 = 56256; ATP luminescence, replicate 2 = 45251; inactive.
After knock-down of Or69a (Odorant receptor 69a) [DRSC25967] the results were mean Z score 0.118; ATP luminescence, replicate 1 = 54716; ATP luminescence, replicate 2 = 60448; inactive.
stj (straightjacket) [DRSC06124] showed mean Z score 0.136; ATP luminescence, replicate 1 = 35993; ATP luminescence, replicate 2 = 32547; inactive.
CG3592 [DRSC18315] showed mean Z score -0.404; ATP luminescence, replicate 1 = 60255; ATP luminescence, replicate 2 = 58420; inactive.
CG3592 [DRSC39849] gave mean Z score 0.109; ATP luminescence, replicate 1 = 63067; ATP luminescence, replicate 2 = 52099; inactive.
After knock-down of Ctr1A (Copper transporter 1A) [DRSC18336], the record shows mean Z score 0.305; ATP luminescence, replicate 1 = 71042; ATP luminescence, replicate 2 = 71179; inactive.
Depletion of CG45049 [DRSC16163] resulted in: mean Z score 0.0439; ATP luminescence, replicate 1 = 35578; ATP luminescence, replicate 2 = 58471; inactive.
Silencing of CG45049 [DRSC23175] came out at: mean Z score -0.176; ATP luminescence, replicate 1 = 44480; ATP luminescence, replicate 2 = 48543; inactive.
For CG11857 [DRSC14411] the deposit lists mean Z score 0.178; ATP luminescence, replicate 1 = 38273; ATP luminescence, replicate 2 = 63600; inactive.
Against Sema1a (Semaphorin 1a) [DRSC03433] the deposit lists mean Z score -0.425; ATP luminescence, replicate 1 = 42559; ATP luminescence, replicate 2 = 36747; inactive.
para (paralytic) [DRSC19141] gave mean Z score -0.828; ATP luminescence, replicate 1 = 67715; ATP luminescence, replicate 2 = 56637; inactive.
Silencing of para (paralytic) [DRSC20360] gave: mean Z score 0.212; ATP luminescence, replicate 1 = 68915; ATP luminescence, replicate 2 = 70219; inactive.
Knock-down of Syb (Synaptobrevin) [DRSC07559] gave: mean Z score 1.24; ATP luminescence, replicate 1 = 36096; ATP luminescence, replicate 2 = 46811; inactive.
After knock-down of Syb (Synaptobrevin) [DRSC25904], the screen gave mean Z score -0.156; ATP luminescence, replicate 1 = 53121; ATP luminescence, replicate 2 = 54126; inactive.
